The target in assay [1] is S. cerevisiae Rad51 (1-250) + H. sapiens Rad51 (190-339) (S. cerevisiae; H. sapiens) (UniProt P25454). The assay is described as follows: yeast two-hybrid, RAD51 hybrid construct.
The target in assay [2] is S. cerevisiae Rad51 (1-226) + H. sapiens Rad51 (168-339) (S. cerevisiae; H. sapiens) (UniProt P25454). The assay is described as follows: yeast two-hybrid, RAD51 hybrid construct.

Results are given in words; binding and its absence hold for the method and conditions named. Some binding calls cover weakened binding; strength is not graded here.

B1: compound 5 peptide sequence (SEQ ID NO.:5) (peptide)
peptide: KRRRRRRRKRLGVRLRVSRML
On to B1, for which the binding result in assay [1] and in assay [2] was “binds” throughout.

The values above are taken from patent US20170368132A1 (published 2017).
